Some of the results follow.

The chains behind the UniProt entries cited, without tags or fusion partners.
UniProt Q0JBA9, entry or part of it: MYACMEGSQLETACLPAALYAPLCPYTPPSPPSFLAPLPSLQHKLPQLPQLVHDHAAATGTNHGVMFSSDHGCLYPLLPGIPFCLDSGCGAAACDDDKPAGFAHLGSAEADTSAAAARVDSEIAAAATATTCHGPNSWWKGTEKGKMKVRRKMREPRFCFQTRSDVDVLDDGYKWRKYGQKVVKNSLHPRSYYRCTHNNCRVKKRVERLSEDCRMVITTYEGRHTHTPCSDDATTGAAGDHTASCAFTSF

This note sets out measurements from PMC7819943, “Rice protein-binding microarrays: a tool to detect cis-acting elements near promoter regions in rice”.

This experiment addresses OsWRKY34 (Oryza sativa, UniProt Q0JBA9 1-250). Description: protein-binding microarray (RPBM); PBS, 2% BSA, 51.3 ng/ul salmon testes DNA, 50 uM zinc acetate, 200 nM TF, 25 C, 1 h; high values mean tight binding. The conditions noted are these: protein: recombinant; tags: N-terminal polyhistidine and DsRed monomer fusion (pET32a); label: CyDye5-dUTP incorporated in the synthesized complementary strand; 3' TTTTT single-stranded linker to array surface; dsDNA, one strand shown. The gist of the method: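 For the binding signal, per-feature fluorescence intensity was read in arbitrary units on an Axon 4000B scanner. Before scanning, a 2% BSA-blocked custom Agilent array made double-stranded with Cy5-dUTP was washed after 1 h at 25 °C with 200 nM protein and 50 µM zinc acetate. The proteins were Ni–NTA-purified transcription factors with N-terminal polyhistidine and DsRed fusions, expressed in E. coli BL21-CodonPlus.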
With “CGGCGCGCCGTGATTGTGCCTGATTGGGGTGGGGTTGGGGCGGAGTCACCTAGTGCAG”, the binding signal was 25300 fluorescence intensity (a.u.). The figure for “TCCGGCTTCCGTGCACGGCGTGTCTGTTCACCTTCTTGTTCGGAGTCACCTAGTGCAG” is 8090 fluorescence intensity (a.u.). Under “ATCTACCTTGATATGTTTTCTTGTGGTTCTATTAGTGAAACGGAGTCACCTAGTGCAG” stands 10300 fluorescence intensity (a.u.); under “TATAGTTGTGTACTAGTGTCACTCACGCCACCCGTCTCATCGGAGTCACCTAGTGCAG”, 8870 fluorescence intensity (a.u.).

For “TCTACCTCCTCACCGTCGTCGCCGTGGTCACCGCGGCTTCCGGAGTCACCTAGTGCAG”, the binding signal is 9450 fluorescence intensity (a.u.). The figure for “GCCGACTACCACCACAACCGCCTCTTGCTGCTATGGATCGCGGAGTCACCTAGTGCAG” is 9110 fluorescence intensity (a.u.); for “AAACTGCTAAACTGCGAGCTCATCACAATCTGGAACCATGCGGAGTCACCTAGTGCAG” it is 8340 fluorescence intensity (a.u.). The figure for “TTTCATGCGTTCCAAGTTGTCATTACTCCTTTGTACTCTCCGGAGTCACCTAGTGCAG” is 10700 fluorescence intensity (a.u.). Under “CTGGCCTCTCTGCCGCCGCCGCCTCCCAGCCAGCGCTGATCGGAGTCACCTAGTGCAG” stands 9060 fluorescence intensity (a.u.); under “AACACCTTCATCTTCATCTTCTACCGCCAGGCAGCTGCCTCGGAGTCACCTAGTGCAG”, 10400 fluorescence intensity (a.u.); under “GGCTATACTATTGATCTCGCTCTTAGCGCCATTTTCCAACCGGAGTCACCTAGTGCAG”, 10800 fluorescence intensity (a.u.). In the case of “GTCCAGTACATTATTTCCTTCACTTGAAATGTTTGAAGAACGGAGTCACCTAGTGCAG”, the binding signal is 8560 fluorescence intensity (a.u.). The figure for “GGCGCTTGTGTGCGTATTTTTGGGCGCGTATTTTTCGTTTCGGAGTCACCTAGTGCAG” is 8300 fluorescence intensity (a.u.); for “ACACACACCTGAATGTCATATGCTCGTCAGAAATATATTTCGGAGTCACCTAGTGCAG” it is 10000 fluorescence intensity (a.u.).

“GCGGAGTTTTGTACCTTTTCTACCATGAATTGAGCATTTCCGGAGTCACCTAGTGCAG”: the binding signal was 8650 fluorescence intensity (a.u.). Consider “TTATCCGGCGGGCACTTTTCCTGCTGCATTATCTTTATATCGGAGTCACCTAGTGCAG”, for which the binding signal is 9310 fluorescence intensity (a.u.).

Take “TCCGTCCCTGCAGTCACCTTATTGGTCAAATTTTAAATATCGGAGTCACCTAGTGCAG”: the binding signal is 13400 fluorescence intensity (a.u.). Under “TGGGTCTGTTTGGGGAGCTTCTAGCTGCAGCAGTTTCTTACGGAGTCACCTAGTGCAG” stands 10300 fluorescence intensity (a.u.); under “GGAGCCTGTAGCATGTGGTGGAGTAGTCTTTTTTTTTTCCCGGAGTCACCTAGTGCAG”, 8580 fluorescence intensity (a.u.). The figure for “GGCGGTGGATCTCGTGTACCGCGGCTGGGGCAGGGATGGGCGGAGTCACCTAGTGCAG” is 10900 fluorescence intensity (a.u.); for “AAATTATCATGGTCGTCTTCATTCCATTCAAGCAAAAAAACGGAGTCACCTAGTGCAG” it is 8490 fluorescence intensity (a.u.).

As to “ATCTGCTCCAATAAGCATATGCATTCCTTCAATTCCAGCTCGGAGTCACCTAGTGCAG”, the binding signal was 8120 fluorescence intensity (a.u.). The figure for “GCATGTATCTTGTGCACCGGGCCTTCGTTGGTTTCCCGTACGGAGTCACCTAGTGCAG” is 9770 fluorescence intensity (a.u.); for “AGCTGCCCTAGGTCTACCTCCACCCCTGCACCATATCACACGGAGTCACCTAGTGCAG” it is 8060 fluorescence intensity (a.u.). The figure for “CAAATGTAATCCATCCGTTCTTTGTCCTTTTGTATTGAATCGGAGTCACCTAGTGCAG” is 8250 fluorescence intensity (a.u.). Consider “TGTGCCGTTTTCTAACGCCGTCCTTTCATGCGTTATTCCTCGGAGTCACCTAGTGCAG”, for which the binding signal was 13500 fluorescence intensity (a.u.). The figure for “AGATGCTCCATCCCATCCTCCTTTGACTTCTTGCCGCCGCCGGAGTCACCTAGTGCAG” is 8380 fluorescence intensity (a.u.). Under “ATTTGCAAATTGAGTTTCTTGTGTTCATCTTGTTCTTGCTCGGAGTCACCTAGTGCAG” stands 8180 fluorescence intensity (a.u.); under “AACCACCATCTCCCCTGAAACCAACACCGGCAAAACACAACGGAGTCACCTAGTGCAG”, 8780 fluorescence intensity (a.u.); under “TCAGACTTGCATTCTGTGATTGCTTTGGTTACTGCAACTTCGGAGTCACCTAGTGCAG”, 8100 fluorescence intensity (a.u.). The figure for “GGTGATTCTGTGCTGTTGATGATGTTTTCTCTGAAGATTCCGGAGTCACCTAGTGCAG” is 11500 fluorescence intensity (a.u.); for “TGTTGTTGGCGATGTCGGCGATGTCGGCGGCGGGCGGCGGCGGAGTCACCTAGTGCAG” it is 9470 fluorescence intensity (a.u.); for “ACTCGTCTGCGACCGACGCCGCCTCATCCGCGCCCGCCGCCGGAGTCACCTAGTGCAG” it is 9240 fluorescence intensity (a.u.). “ATGTGGTTGGTTGGTGACTTTTTATGCACACGCCACCTACCGGAGTCACCTAGTGCAG”: the binding signal is 8170 fluorescence intensity (a.u.).

As for “GCTTCCTGGCGTGAATTCCGTGTACTTATTTGTTATAATTCGGAGTCACCTAGTGCAG”, the binding signal is 8950 fluorescence intensity (a.u.). Under “CCCAATCCATCGCGCCCGCGCTCCGCTCCGCTGCCTATAACGGAGTCACCTAGTGCAG” stands 11100 fluorescence intensity (a.u.). As for “TTAACTTTTGTCATAACGTTTGACTATCCGTCTTGCTCAACGGAGTCACCTAGTGCAG”, the binding signal was 8530 fluorescence intensity (a.u.). Take “ACCGTGTGGGTATGGTGTGCGTGTGTAGTGGTGTTTGTGCCGGAGTCACCTAGTGCAG”: the binding signal is 9600 fluorescence intensity (a.u.). The figure for “CATCTGTTTGGTCCTGTAATGTTTTGTTAGTTGTCTACACCGGAGTCACCTAGTGCAG” is 8180 fluorescence intensity (a.u.). “AACACCAATTCCTTATATAGTACATTTCATCATCTTCGATCGGAGTCACCTAGTGCAG”: the binding signal is 10400 fluorescence intensity (a.u.). As for “ATTAAGTTTCTTTTTATTTATTGGTGTGCATGTCTTATCTCGGAGTCACCTAGTGCAG”, the binding signal was 8840 fluorescence intensity (a.u.). The figure for “CGTTGCTCCGGCGCGCCATGTTCGAGCTGCTCCTGTACATCGGAGTCACCTAGTGCAG” is 8320 fluorescence intensity (a.u.).
